# Source: patent publication US9901553B2, “Method of modulating the activity of a nucleic acid molecule” (DUKE UNIVERSITY, priority 2007, dated 2018)
# Some results were stated once for a whole list of compounds, not compound by compound. [invdT] = inverted (3'-3') thymidine
# Experiment: Dynamic light scattering (DLS) of CDP/9.3t
# Assay type: physicochemical
# Settings: 1×PBS
substance,measurement,value
"9.3t: factor IXa aptamer, 37 nt 2′fluoropyrimidine modified ssRNA, no carrier (SEQ ID NO: 1) (AUGGGGACUAUACCGCGUAAUGCUGCCUCCCCAUU; 2'-fluoro at CU, RNA at AG, 3' [invdT], backbone not given here)",average count rate,< 2 kcps
